According to paper PMC7819943, “Rice protein-binding microarrays: a tool to detect cis-acting elements near promoter regions in rice”:
The list shows a part of the results.

Each sequence was assayed against T1, OsSMF1 (Oryza sativa, UniProt Q6ZLB0 1-436) (assay: protein-binding microarray (RPBM); PBS, 2% BSA, 51.3 ng/ul salmon testes DNA, 50 uM zinc acetate, 200 nM TF, 25 C, 1 h; high values mean tight binding). Details: protein: recombinant; tags: N-terminal polyhistidine and DsRed monomer fusion (pET32a); chain copies: 2; label: CyDye5-dUTP incorporated in the synthesized complementary strand; 3' TTTTT single-stranded linker to array surface; dsDNA, one strand shown.
T1 sequence: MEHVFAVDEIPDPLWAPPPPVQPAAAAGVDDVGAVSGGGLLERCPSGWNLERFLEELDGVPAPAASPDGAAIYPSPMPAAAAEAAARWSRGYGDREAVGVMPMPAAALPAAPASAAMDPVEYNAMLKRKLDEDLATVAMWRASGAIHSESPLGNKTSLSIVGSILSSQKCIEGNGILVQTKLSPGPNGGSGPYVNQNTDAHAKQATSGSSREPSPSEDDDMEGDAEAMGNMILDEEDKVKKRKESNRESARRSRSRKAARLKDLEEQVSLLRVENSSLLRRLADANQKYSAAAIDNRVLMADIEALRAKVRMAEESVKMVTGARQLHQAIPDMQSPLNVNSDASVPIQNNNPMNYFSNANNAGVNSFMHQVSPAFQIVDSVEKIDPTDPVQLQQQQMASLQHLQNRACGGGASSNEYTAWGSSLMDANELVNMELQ
In short: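 The binding signal for each feature is its fluorescence intensity in arbitrary units. An Axon 4000B scanner was used to read a custom Agilent array that had been made double-stranded with Cy5-dUTP primer extension, blocked with 2% BSA, incubated at 25 °C for 1 h with 200 nM protein in PBS, 2% BSA, salmon testes DNA and 50 µM zinc acetate, and washed. The protein was an N-terminal polyhistidine–DsRed transcription factor fusion from E. coli BL21-CodonPlus, purified on Ni–NTA.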
For “AGGGCTGCCACCGCCAGACACATCACCTTCCCCATCGACCCGGAGTCACCTAGTGCAG”, the binding signal was 3880 fluorescence intensity (a.u.).
For “GAGTGACGTCAGTGGACGGAGTGGTACATAACGAAGAAAACGGAGTCACCTAGTGCAG”, the binding signal was 17300 fluorescence intensity (a.u.).
“AATCTGACTTCAAAGTTTACGATGGAAGGCGGAGGAAGTACGGAGTCACCTAGTGCAG” was tested, and the binding signal was 4090 fluorescence intensity (a.u.).
For “CACCGTACCTCGCCATATCGTCAAGCAGCAGTGCTAACTACGGAGTCACCTAGTGCAG”, the binding signal was 3530 fluorescence intensity (a.u.).
In the case of “GCTGCTCTGTAGCTGGCAGGCTAGGGTTTACGCTAGCTGACGGAGTCACCTAGTGCAG”, the binding signal is reported as 3830 fluorescence intensity (a.u.).
For “TTTTGGTCATTTTACCATATGACTTTGTTTTGGTAATTTGCGGAGTCACCTAGTGCAG”, the binding signal was 3210 fluorescence intensity (a.u.).
In the case of “ATCTGTGATTGAATGTATGAATCTGTGATGTGGTGACTGACGGAGTCACCTAGTGCAG”, the binding signal is reported as 4250 fluorescence intensity (a.u.).
“GGTCACTGTTGGAGAGGTACAGTGACTTTGACCTAGCTTTCGGAGTCACCTAGTGCAG” was tested, and the binding signal was 3610 fluorescence intensity (a.u.).
For “ACGGCTTCCTTACGTGGCACACGTAAGCCGTTGCTTGCTTCGGAGTCACCTAGTGCAG”, the binding signal was 35100 fluorescence intensity (a.u.).
With “GGGAGAGAAGAGGGGAGAGAGAGGAGTTGACGTGGCCATGCGGAGTCACCTAGTGCAG” the binding signal was 18800 fluorescence intensity (a.u.).
For “TCAATTTCCATACACACGGCTCCGTGCTCGCGCTGCCTGCCGGAGTCACCTAGTGCAG”, the binding signal was 3700 fluorescence intensity (a.u.).
With “TAAAGGGACTGTTCACTTTGATGTCATTTTCAACCTTACCCGGAGTCACCTAGTGCAG” the binding signal was 3380 fluorescence intensity (a.u.).
With “TTGGCTGCTGCGACGACGGAGGTGGAGGCTCTGTGCGTCACGGAGTCACCTAGTGCAG” the binding signal was 3790 fluorescence intensity (a.u.).
“CACTCAGCTGAGCTGCTCAATACACACGCCAGCATGCTGCCGGAGTCACCTAGTGCAG” was tested, and the binding signal was 5020 fluorescence intensity (a.u.).
In the case of “AACGCTCCCAAGCTACCACGTGGCCTCCTACAAACTCTCACGGAGTCACCTAGTGCAG”, the binding signal is reported as 3920 fluorescence intensity (a.u.).
“GGCGGCCACGGGCTCCGGCGGAGGGCGGCGTGGTGGCGGCCGGAGTCACCTAGTGCAG” was tested, and the binding signal was 14400 fluorescence intensity (a.u.).
“AAGTTCACAGTGCTGACCACGGTCAAGGTGCCACGTCATCCGGAGTCACCTAGTGCAG” was tested, and the binding signal was 35200 fluorescence intensity (a.u.).
In the case of “CTGCCGGTGGACGGCGGCGGAGAGCTGACTAGCCGAGCCGCGGAGTCACCTAGTGCAG”, the binding signal is reported as 3520 fluorescence intensity (a.u.).
“CGGGGACGGGTGGAATTTTCAACCCGCGAGGAGTCGGGGTCGGAGTCACCTAGTGCAG” was tested, and the binding signal was 30500 fluorescence intensity (a.u.).
“GAACTGTCACCCAGAGATCGTTGTTTGTCGGGTGAGGTGTCGGAGTCACCTAGTGCAG” was tested, and the binding signal was 3140 fluorescence intensity (a.u.).
With “TGGCGGCAGTTGGAGCTGGAGGAAGGGGATGACAGGTGGGCGGAGTCACCTAGTGCAG” the binding signal was 3960 fluorescence intensity (a.u.).
“TCACAGGTGGTATAGTATTTCCAAGTGACATCAGTAGCCACGGAGTCACCTAGTGCAG” was tested, and the binding signal was 3190 fluorescence intensity (a.u.).
For “TCTCTTTTGGCTGCCTGTCACGTGGGCCCCACCGTCACCGCGGAGTCACCTAGTGCAG”, the binding signal was 3660 fluorescence intensity (a.u.).
For “AGCCACACATATGTTGACATGCGGCATAATCATAGAGGTTCGGAGTCACCTAGTGCAG”, the binding signal was 3800 fluorescence intensity (a.u.).
For “CTAAAACAGGCGAGTAGGATATACTACCTTCAATTATATTCGGAGTCACCTAGTGCAG”, the binding signal was 40600 fluorescence intensity (a.u.).
In the case of “GACGATGTCGGTGATCCAGCCAATAGCAGTGTAGCAACCACGGAGTCACCTAGTGCAG”, the binding signal is reported as 3250 fluorescence intensity (a.u.).
“AAAAGGAATTGGAGACATAGTAGTGAGATAGCACGTCACTCGGAGTCACCTAGTGCAG” was tested, and the binding signal was 4480 fluorescence intensity (a.u.).
With “CCGGAGAGGTGGAGGTGGATCGGTGACCATCGTGGTTAGGCGGAGTCACCTAGTGCAG” the binding signal was 3420 fluorescence intensity (a.u.).
With “ATGTAATACCCGATGTGATACAGCAAAACTTTACCCTCAGCGGAGTCACCTAGTGCAG” the binding signal was 3430 fluorescence intensity (a.u.).
In the case of “TTTGCCATGTCAATCTTCTGTTTTCACATAGCTTCACCGACGGAGTCACCTAGTGCAG”, the binding signal is reported as 4460 fluorescence intensity (a.u.).
In the case of “ACCTAGATGACATCACTAATTCTAAACTTTAATCTCTATTCGGAGTCACCTAGTGCAG”, the binding signal is reported as 4200 fluorescence intensity (a.u.).
With “GGCTCGATTCGCGACGGCGGAGGTCGATGCGTGGCGGCGGCGGAGTCACCTAGTGCAG” the binding signal was 4470 fluorescence intensity (a.u.).
For “TTTCTTAGATCGAATTGCCACGTCAATGACACGTTAGATGCGGAGTCACCTAGTGCAG”, the binding signal was 27900 fluorescence intensity (a.u.).
For “GGCTGGAGGTGTTCAGGGACAACGTGGCGTTCATCGAGTCCGGAGTCACCTAGTGCAG”, the binding signal was 5820 fluorescence intensity (a.u.).
With “CTGATCAGTCATGATGCATTGTGGCTCTTTTCCATCCATTCGGAGTCACCTAGTGCAG” the binding signal was 4200 fluorescence intensity (a.u.).
With “AGAACCGAATTAATTTGGGGTTAAATAAATGACTAAGCAGCGGAGTCACCTAGTGCAG” the binding signal was 3970 fluorescence intensity (a.u.).
In the case of “AATGTCATAGTACCAGCATTACGTGCAAGTGTGCAACATGCGGAGTCACCTAGTGCAG”, the binding signal is reported as 3160 fluorescence intensity (a.u.).
In the case of “GGGGCGATGTCGTGCGCGATGGACGCGTCAGCGTCACCTCCGGAGTCACCTAGTGCAG”, the binding signal is reported as 8420 fluorescence intensity (a.u.).
With “GTTTTGTCCTGATGCATGATGAACAGCCCATCATCAACGGCGGAGTCACCTAGTGCAG” the binding signal was 3520 fluorescence intensity (a.u.).
For “ACCGATGATCGGTCCATCCGTGCTTTTCGGTTCTAACACCCGGAGTCACCTAGTGCAG”, the binding signal was 3640 fluorescence intensity (a.u.).
“CGGAAAATCCCTCGAGCACATGTGAAACTTCCCCGTGATCCGGAGTCACCTAGTGCAG” was tested, and the binding signal was 3470 fluorescence intensity (a.u.).
“GTGCATGTCGCATTGTCATTAGCTGTCTTAGCTACTGATGCGGAGTCACCTAGTGCAG” was tested, and the binding signal was 3560 fluorescence intensity (a.u.).
